In PMC4561382, “Aven recognition of RNA G-quadruplexes regulates translation of the mixed lineage leukemia protooncogenes”:

Legend:
Test in all cases: pull-down
[1] = biological target: Aven (endogenous) (human (HEK293T cells)) (UniProt Q9NQS1); details: increasing NaCl washes; RNA folded in 10 mM Tris-acetate pH 7.7, 200 mM K-acetate, 5 mM Mg-acetate (75 C 10 min, 21 C 5 min); peptide assay 1 h at room temperature, washes in this buffer; protein in an extract; label: 3' biotin
[2] = biological target: Aven (endogenous, hypomethylated) (human (HEK293T cells)) (UniProt Q9NQS1); details: PRMT1-depleted cells, bound equally well as control; RNA folded in 10 mM Tris-acetate pH 7.7, 200 mM K-acetate, 5 mM Mg-acetate (75 C 10 min, 21 C 5 min); peptide assay 1 h at room temperature, washes in this buffer; protein in an extract; label: 3' biotin
FLAG-Aven (human) = FLAG-Aven (human) (UniProt Q9NQS1); details: RNA folded in 10 mM Tris-acetate pH 7.7, 200 mM K-acetate, 5 mM Mg-acetate (75 C 10 min, 21 C 5 min); peptide assay 1 h at room temperature, washes in this buffer; protein in a lysate after overexpression; residues 1-362; protein details: FLAG; label: 3' biotin
[3] = biological target: T1, FLAG-AvenΔRGG del1-73 (human) (UniProt Q9NQS1); details: RNA folded in 10 mM Tris-acetate pH 7.7, 200 mM K-acetate, 5 mM Mg-acetate (75 C 10 min, 21 C 5 min); peptide assay 1 h at room temperature, washes in this buffer; protein in a lysate after overexpression; residues 74-362; protein details: FLAG; label: 3' …
T1 sequence (looked up): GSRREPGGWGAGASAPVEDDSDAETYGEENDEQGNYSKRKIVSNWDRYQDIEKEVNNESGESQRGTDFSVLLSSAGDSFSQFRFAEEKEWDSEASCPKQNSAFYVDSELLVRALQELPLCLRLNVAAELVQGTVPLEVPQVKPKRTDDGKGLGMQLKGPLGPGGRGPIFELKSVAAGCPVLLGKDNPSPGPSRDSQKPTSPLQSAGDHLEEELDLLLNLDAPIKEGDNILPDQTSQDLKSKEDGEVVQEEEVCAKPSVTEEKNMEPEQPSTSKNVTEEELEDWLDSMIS

Sequence | binding result [1] | binding result [2] | binding result (FLAG-Aven (human)) | binding result [3]
GCUGCGGUGUGGAAGGAGUGGUCGGGUUGCGCAGCG [sc1 G4 (biotin)] | binds | binds | binds | no binding
CGGCAAAAAGCAGCGGGGCUAAAAUUCCAGGGGGAGCGG [MLL1 G4m] | no binding | – | – | –
CGGCGGGAAGCAGCGGGGCUGGGGUUCCAGGGGGAGCGG [MLL1 G4 (220-258)] | binds | – | binds | no binding
CCAGCGGGGCCGGGGACGGGGUCGGGGCCGGGGCUGGGGCCCGA [MLL4 G4 (267-310)] | binds | – | binds | no binding
CCAGCAAAACCGGGGACGGGGUCAAAACCGGGGCUGGGGCCCGA [MLL4 G4m] | no binding | – | – | –
GCUGCAAUGUGGAAAAAGUGGUCGGGUUGCGCAGCG [sc1 G4m (biotin)] | no binding | – | – | –

At least one result comes from cells or an extract, where the contact may be indirect. For some of these results: A negative result means that nothing was seen under these conditions. For some of these results: At least one verdict rests on a figure or table, not on a statement of the authors. For some of these results: Where a protein sequence is shown, tags need not be part of it. For some of these results: Construct, isoform or probe ends are uncertain for at least one entry.
